The source of these data is patent US20050215520A1, “Complex of organic medicines and beta-cyclodextrin derivatives and its preparing process” (priority 2002, published 2005).

The series can be described thus: Critical mole ratio or critical mass ratio of medicines and beta-cyclodextrin derivative (Table 1, examples). In kind it is physicochemical. Particulars: beta-cyclodextrin derivative (hydroxide propyl beta-cyclodextrin in the examples) to medicine; complex dissolves exactly in water to stable solution. Here is the method: The critical mole ratio or critical mass ratio in the present invention refers to the mole ratio and mass ratio when complex of organic medicine and beta-cyclodextrin derivatives prepared with the method of this invention is dissolved exactly in water of specified amount to form stable aqueous solution.
The critical value of organic medicine and beta-cyclodextrin derivatives in the present invention, may be determined with the undermentioned unit test method.
All kinds of mole ratio and mass ratio of the medicine and beta-cyclodextrin derivative is made into complex with expanding loose body according to the method of the present invention, then the set water is added into the a variety of compounding ratio of complex, and by observing properties of the solution, the compounding ratio of exactly dissolving in water and with stable property, acts as the critical mole ratio or critical mass ratio of the present invention.
The critical mole ratio and critical mass ratio in the present invention may be determined with the undermentioned saturated solution method. […]
From the results, it is seen that the results two measuring method of critical value are consistent generally. The critical mole ratio orcritical mass ratio of all kinds of medicines applied in the present invention, which measured in the experiments, is indicated in the following table 1: […]

For `O=C1OCCN1/N=C/c1ccc([N+](=O)[O-])o1` [furazolidone], the “Critical value Mass ratio” value amounted to 25.
